Experiment [1] concerns the target T1, His-SUMO-Pex5 (full-length PEX5, 1-612, Saccharomyces cerevisiae) (Saccharomyces cerevisiae) (UniProt P35056).
T1 sequence: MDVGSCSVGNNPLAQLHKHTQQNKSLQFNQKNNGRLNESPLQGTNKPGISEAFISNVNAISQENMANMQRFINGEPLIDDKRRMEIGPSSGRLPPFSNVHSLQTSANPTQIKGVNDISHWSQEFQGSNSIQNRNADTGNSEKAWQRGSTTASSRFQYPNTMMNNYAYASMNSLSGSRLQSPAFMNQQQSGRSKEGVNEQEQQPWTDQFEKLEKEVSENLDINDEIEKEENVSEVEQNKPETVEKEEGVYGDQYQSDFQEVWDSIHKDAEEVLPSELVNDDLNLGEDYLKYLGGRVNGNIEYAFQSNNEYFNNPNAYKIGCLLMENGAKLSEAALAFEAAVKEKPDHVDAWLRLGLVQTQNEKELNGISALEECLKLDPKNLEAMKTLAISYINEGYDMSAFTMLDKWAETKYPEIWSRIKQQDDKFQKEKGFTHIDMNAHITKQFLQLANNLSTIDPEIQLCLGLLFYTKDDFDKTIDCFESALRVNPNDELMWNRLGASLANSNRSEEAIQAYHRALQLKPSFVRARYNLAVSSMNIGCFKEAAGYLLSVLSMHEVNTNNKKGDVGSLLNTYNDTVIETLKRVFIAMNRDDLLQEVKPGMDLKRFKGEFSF
The experiment is described as follows: pull-down.

Experiment [2] addresses T2, Pex5 (full-length yeast Pex5, 1-612), His-Sumo cleaved off (Saccharomyces cerevisiae) (UniProt P35056).
T2 sequence: T1 sequence
The experiment is described as follows: cryo-EM structure.

These are yes or no findings as the source states them, for the method shown. For part of these data: In cells and extracts the contact can be indirect. Some entries that bind do so weakly or less than the wild type. Where a sequence is shown, tags or fusion partners need not be part of it.

B1: FLAG-Eci1 ΔPTS1 (Eci1 without its last three amino acids 278HRL280) (domain or fragment, UniProt Q05871 1-277)
chain: MSQEIRQNEKISYRIEGPFFIIHLMNPDNLNALEGEDYIYLGELLELADRNRDVYFTIIQSSGRFFSSGADFKGIAKAQGDDTNKYPSETSKWVSNFVARNVYVTDAFIKHSKVLICCLNGPAIGLSAALVALCDIVYSINDKVYLLYPFANLGLITEGGTTVSLPLKFGTNTTYECLMFNKPFKYDIMCENGFISKNFNMPSSNAEAFNAKVLEELREKVKGLYLPSCLGMKKLLKSNHIDAFNKANSVEVNESLKYWVDGEPLKRFRQLGSKQRK
For B1, in experiment [1], the binding result is “binds”.

B2: FLAG-Eci1 (yeast delta3, delta2-Enoyl-CoA Isomerase 1) (enzyme, Saccharomyces cerevisiae (yeast), UniProt Q05871 1-280, looked up)
chain: MSQEIRQNEKISYRIEGPFFIIHLMNPDNLNALEGEDYIYLGELLELADRNRDVYFTIIQSSGRFFSSGADFKGIAKAQGDDTNKYPSETSKWVSNFVARNVYVTDAFIKHSKVLICCLNGPAIGLSAALVALCDIVYSINDKVYLLYPFANLGLITEGGTTVSLPLKFGTNTTYECLMFNKPFKYDIMCENGFISKNFNMPSSNAEAFNAKVLEELREKVKGLYLPSCLGMKKLLKSNHIDAFNKANSVEVNESLKYWVDGEPLKRFRQLGSKQRKHRL
As to B2, the binding result in experiment [2] and in experiment [1] was “binds” throughout.

Values taken from article doi:10.1101/2024.06.02.597006 (bioRxiv, 2024).
